According to patent publication US20230203178A1 (SICHUAN KELUN BIOTECH BIOPHARMACEUTICAL, published 2023):

Target: T1, human BCMA (antigen) (human, UniProt Q02223 1-54, limits assumed)
T1 construct: Antigen coupled to the CM5 chip in SPR; also called B-cell maturation antigen; TNFRF17
T1 sequence (looked up): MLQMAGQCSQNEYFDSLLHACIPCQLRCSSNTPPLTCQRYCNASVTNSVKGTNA
Test: flow cytometry of lentivirus-transduced T cells labelled with antigen, 48 h after transduction; percent positive cells
From the text: The nucleic acid sequence encoding the CAR was expressed under the drive of a promoter, therefore the lentivirus-transfected T cells could be labeled with an antigen or anti-CD19 antibody and measured by flow cytometry, to reflect the expression level of the CAR on the surface of the T cells.

B1: FMC63 CAR (other)
chain: DIQMTQTTSSLSASLGDRVTISCRASQDISKYLNWYQQKPDGTVKLLIYHTSRLHSGVPSRFSGSGSGTDYSLTISNLEQEDIATYFCQQGNTLPYTFGGGTKLEITGGGGSGGGGSGGGGSEVKLQESGPGLVAPSQSLSVTCTVSGVSLPDYGVSWIRQPPRKGLEWLGVIWGSETTYYNSALKSRLTIIKDNSKSQVFLKMNSLQTDDTAIYYCAKHYYYGGSYAMDYWGQGTSVTVSSTTTPAPRPPTPAPTIASQPLSLRPEACRPAAGGAVHTRGLDFACDIYIWAPLAGTCGVLLLSLVITLYCKRGRKKLLYIFKQPFMRPVQTTQEEDGCSCRFPEEEEGGCELRVKFSRSADAPAYKQGQNQLYNELNLGRREEYDVLDKRRGRDPEMGGKPRRKNPQEGLYNELQKDKMAEAYSEIGMKGERRRGKGHDGLYQGLSTATKDTYDALHMQALPPR
notes: Chimeric antigen receptor on human T cells; built here from its parts without the signal peptide; also called FMC63 CAR-T
- Positive rate of binding to BCMA: 1.01%
